In the supplement of paper PMC6078165:

System: BT20
Experiment: relative JC-1 red fluorescence (viability) vs pre-drug, coculture with fibroblast (fraction); higher = more viable cancer cells
Experimental: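 JC-1 labelled TNBC cells cocultured 1:1 (1,500 cells each) with CellTrace Violet stained primary or stromal fibroblasts in 384-well plates in FluoroBrite medium, treated with one of 42 anticancer drugs at 0.1, 1, 10 or 100 uM. JC-1 red fluorescence (mitochondrial integrity in cancer cells only) was read by plate reader every 8 h for 72 h. Values are normalised to each well's pre-drug value. The stock of one drug was tenfold lower, so its dose labels may be too high.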

CC/C(=C(\c1ccccc1)c1ccc(OCCN(C)C)cc1)c1ccccc1 [Tamoxifen]
relative JC-1 red fluorescence
Details | 8 h | 16 h | 24 h | 32 h | 40 h | 48 h | 56 h | 64 h | 72 h
1 µM, coculture fibroblast: C12385 | – | – | – | – | – | 0.629 | 0.599 | 0.582 | 0.558
1 µM, coculture fibroblast: H6013 | – | – | – | – | – | 0.759 | 0.76 | 0.738 | 0.717
1 µM, coculture fibroblast: H6019 | – | – | – | – | – | 0.763 | 0.731 | 0.706 | 0.687
1 µM, coculture fibroblast: H6076 | – | – | – | – | – | 0.762 | 0.75 | 0.737 | 0.729
1 µM, coculture fibroblast: H6231 | – | – | – | – | – | 0.631 | 0.601 | 0.575 | 0.547
1 µM, coculture fibroblast: HADF | – | – | – | – | – | 0.822 | 0.811 | 0.802 | 0.774
1 µM, coculture fibroblast: HCFa | – | – | – | – | – | 0.738 | 0.71 | 0.685 | 0.645
1 µM, coculture fibroblast: HCPF | – | – | – | – | – | 0.6897 | 0.652 | 0.6283 | 0.5961
1 µM, coculture fibroblast: HHSteC | – | – | – | – | 0.777 | 0.751 | 0.731 | 0.708 | 0.676
1 µM, coculture fibroblast: HMF | – | – | – | – | 0.649 | 0.616 | 0.579 | 0.55 | 0.5162
1 µM, coculture fibroblast: HPFa | – | – | – | – | 0.759 | 0.7155 | 0.685 | 0.6428 | 0.596
1 µM, coculture fibroblast: HUF | – | – | – | – | 0.69 | 0.654 | 0.636 | 0.615 | 0.598
1 µM, coculture fibroblast: Hs5 | – | – | – | – | 0.792 | 0.7448 | 0.716 | 0.687 | 0.656
1 µM, coculture fibroblast: Hs27A | – | – | – | – | 0.8526 | 0.819 | 0.79382 | 0.7665 | 0.71289
1 µM, coculture fibroblast: Hs343T | – | – | – | – | 0.717 | 0.686 | 0.639 | 0.626 | 0.601
1 µM, coculture fibroblast: WS1 | – | – | – | – | 0.576 | 0.548 | 0.521 | 0.498 | 0.479
10 µM, coculture fibroblast: C12385 | 0.889 | 0.836 | 0.796 | 0.75 | 0.692 | 0.68 | 0.664 | 0.647 | 0.631
10 µM, coculture fibroblast: H6013 | 0.971 | 0.9424 | 0.901 | 0.901 | 0.84 | 0.832 | 0.817 | 0.79 | 0.77
10 µM, coculture fibroblast: H6019 | 0.89 | 0.877 | 0.85 | 0.813 | 0.772 | 0.7622 | 0.739 | 0.713 | 0.697
10 µM, coculture fibroblast: H6076 | 0.744 | 0.9831 | 0.902 | 0.879 | 0.828 | 0.791 | 0.745 | 0.739 | 0.721
10 µM, coculture fibroblast: H6231 | 0.788 | 0.855 | 0.89 | 0.82 | 0.7494 | 0.698 | 0.657 | 0.621 | 0.59
10 µM, coculture fibroblast: HADF | 0.859 | 0.968 | 0.8513 | 0.866 | 0.825 | 0.793 | 0.767 | 0.752 | 0.724
10 µM, coculture fibroblast: HCFa | 0.869 | 0.796 | 0.806 | 0.801 | 0.826 | 0.7539 | 0.811 | 0.717 | 0.723
10 µM, coculture fibroblast: HCPF | 0.836 | 0.9729 | 0.883 | 0.847 | 0.789 | 0.738 | 0.6856 | 0.67 | 0.611
10 µM, coculture fibroblast: HHSteC | 0.95 | 0.919 | 0.777 | 0.757 | 0.885 | 0.802 | 0.856 | 0.849 | 0.831
10 µM, coculture fibroblast: HMF | 0.834 | 0.813 | 0.941 | 0.839 | 0.949 | 0.884 | 0.82 | 0.771 | 0.727
10 µM, coculture fibroblast: HPFa | 0.9308 | 0.8553 | 0.8237 | 0.769 | 0.711 | 0.6763 | 0.639 | 0.609 | 0.579
10 µM, coculture fibroblast: HUF | 0.87964 | 0.828 | 0.806 | 0.851 | 0.829 | 0.804 | 0.784 | 0.754 | 0.732
10 µM, coculture fibroblast: Hs5 | 0.899 | 0.832 | 0.874 | 0.874 | 0.9812 | 0.9494 | 0.896 | 0.873 | 0.856
10 µM, coculture fibroblast: Hs27A | 0.737 | 0.799 | 0.835 | 0.896 | 0.879 | 0.79 | 0.914 | 0.937 | 0.876
10 µM, coculture fibroblast: Hs343T | 0.78 | 0.884 | 0.885 | 0.85 | 0.801 | 0.7679 | 0.696 | 0.658 | 0.625
10 µM, coculture fibroblast: WS1 | 0.868 | 0.818 | 0.783 | 0.75 | 0.743 | 0.75 | 0.75 | 0.747 | 0.76

Values are relative to the signal before dosing, not to a vehicle control; the signal also falls without drug.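 Fibroblast labels denote human fibroblasts, mainly primary ones from uterus (C12385, HUF), lung (H6013), bone (Hs27A), adrenal (HADF) and skin (WS1), plus mammary HMF and breast cancer-associated Hs343T. Cancer cells are basal-like or mesenchymal-like triple-negative breast cancer lines. A hit is a response shift exceeding 3x replicate standard deviation. The tissue of the other fibroblasts is not given here.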
